A weaker result is weaker than the reference pair of the same experiment. For some assays here: Where a protein sequence is shown, tags need not be part of it. For some assays here: For at least one entry, the source does not settle the construct or the ends of the probe. For some assays here: At least one verdict rests on a figure or table, not on a statement of the authors.

By UniProt entry, the sequences of proteins in these tests, tags left out. Residues count along the entry.
UniProt Q9SCK6, 1-168: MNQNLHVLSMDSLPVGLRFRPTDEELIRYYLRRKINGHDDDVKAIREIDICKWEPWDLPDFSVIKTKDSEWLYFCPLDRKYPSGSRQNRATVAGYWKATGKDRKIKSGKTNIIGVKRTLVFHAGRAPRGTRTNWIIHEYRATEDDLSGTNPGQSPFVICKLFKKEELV

The target of data set [1] is GST-NTL6(1-168) (Arabidopsis thaliana) (UniProt Q9SCK6). The data set can be described thus: EMSA. Particulars: EMSA with 75 pM 32P-labelled DNA; oligos annealed in 20 mM Tris-HCl pH 8.0, 20 mM MgCl2; recombinant protein; residues 1-168; protein details: GST; label: 32P. A general note: Mobility shift assays separate free from complexed probe on a gel.
In data set [2] the target is T1, GST-ANAC092(1-176) (Arabidopsis thaliana) (UniProt Q9FKA0).
T1 sequence (looked up): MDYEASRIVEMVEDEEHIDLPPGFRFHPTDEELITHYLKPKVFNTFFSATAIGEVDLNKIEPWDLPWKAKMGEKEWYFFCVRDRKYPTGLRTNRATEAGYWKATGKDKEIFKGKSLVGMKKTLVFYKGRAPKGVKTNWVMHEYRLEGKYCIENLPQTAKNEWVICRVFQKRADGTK
The data set can be described thus: EMSA. Particulars: EMSA with 75 pM 32P-labelled DNA; oligos annealed in 20 mM Tris-HCl pH 8.0, 20 mM MgCl2; recombinant protein; residues 1-176; protein details: GST; label: 32P.

Take “CAGTCTTGCGTGTTGGAACACGCAACAGTC (double strand) [PalNACBS]”: in data set [1], the binding result is reported as “binds more weakly”.
For the sequence “GATCAGGTTCAGCTAAGTAACCGATCCAGG / GATCCCTGGATCGGTTACTTAGCTGAACCT [MYB90Synth (Synthetic promoter)]”, in data set [2], the binding result is given as “binds more weakly”.

These data come from publication PMC4081100.
